Measured values published in PubChem BioAssay AID493014 (National Center for Advancing Translational Sciences (NCATS), 2011).
This is one part of the list. These are further read-outs of the screen, such as a control signal, another cell line or another target. No call is given for them. The list favours compounds with an active or inconclusive main result. Potencies come from curve fits of mixed quality, noted in brackets.

Assay: qHTS Assay to Find Inhibitors of Chronic Active B-Cell Receptor Signaling
Conditions: ABC-DLBCL IkBa-CBG/CBR reporter, luminescence ratio (green luciferase fused to IkBa over red control in TMD8 lymphoma cells), 4 h
Summary of the method: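 Cell line TMD8 (human ABC DLBCL), stably expressing tet-inducible CBG68-IkBa fusion and CBR; IMDM/0.5% FBS; cpd up to 46 uM; dox induction, 4 h, 37C/5% CO2; dual luminescence; green/red ratio; MG132 control.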

[1] = measured here: CBR red luminescence, cell number
[2] = measured here: IkBa-CBG green luminescence

Row | SMILES | AC50 [1] | AC50 [2]
1 | COc1ccc(NC(=O)CSc2nc3sc(C)cc3c(=O)n2C)c(OC)c1 | 3.98 µM [falling, single point] | –
2 | O=C(Cc1cccc2ccccc12)N/N=C/c1ccc(Sc2cccc3cccnc23)o1 | – | 20.6 µM [falling, partial curve, poor fit]
3 | Cc1cccc2cc(CNCc3ccccc3)c(Cl)nc12 | 20 µM [rising, partial curve, poor fit] | –
4 | O=C(CCc1nnc(CCCc2ccccc2)o1)NCCN1CCOC1=O | 17.8 µM [rising, partial curve, poor fit] | –
5 | Cc1ccc(NC(=O)C2C3/C=C\CCCCC32)cc1 (configuration not stated) | 2.06 µM [rising, partial curve] | –
6 | c1ccc(C2=Nn3c(nnc3-c3ccncc3)SC2)cc1 | 0.631 µM [falling, partial curve, poor fit] | –
7 | CCOC(=O)c1nn(-c2ccccc2)c(=O)c2c(N)sc(C)c12 | 23.1 µM [rising, partial curve] | –
8 | Cc1ccccc1NC(=O)c1cc(=O)c2ccccc2o1 | 3.98 µM [falling, partial curve, poor fit] | –
9 | Cc1cccc(-n2ncc3c(NC(C)C)ncnc32)c1 | 16.4 µM [falling, partial curve] | –
10 | COc1ccc(CNC(=S)Nc2ccccc2)cc1Cl | 14.1 µM [rising, partial curve, poor fit] | –
11 | Nc1c2ccccc2nc2ccccc12 | – | 7.94 µM [rising, partial curve, poor fit]
12 | Cc1ccc(NC(=O)c2nc[nH]c2C(=O)N[C@H](C)c2ccccc2)cc1 | 20.6 µM [rising, partial curve, poor fit] | –
13 | COCCn1c(=NC(=O)C2COc3ccccc3O2)sc2cc(S(N)(=O)=O)ccc21 (configuration not stated) | 4.11 µM [rising, full curve, poor fit] | –
14 | CC(=O)c1cccc(N=Cc2c(O)c3ccccc3oc2=O)c1 | 6.31 µM [falling, full curve] | –
15 | Cc1ccc(C)c(NS(=O)(=O)c2ccc(OCC(=O)NCc3ccco3)cc2)c1 | 16.4 µM [falling, single point] | –
16 | CCCCNC(=S)N(C)/N=C/c1ccc(F)cc1 | 11.6 µM [rising, partial curve] | –
17 | Cc1cc(=O)oc2c(C(=O)/C=C\c3cccs3)c(O)ccc12 | 7.31 µM [falling, partial curve] | –
18 | O=C(O)c1ccc2c(c1)C(=O)N([C@H](Cc1ccccc1)C(=O)O)C2=O | 9.2 µM [falling, partial curve, poor fit] | –
19 | CCc1cccc(CC)c1NC(=O)C1SC(=Nc2ccccc2C)C(c2nc3ccccc3s2)=C1N (configuration not stated) | 29.1 µM [falling, single point] | –
20 | O=C1Cc2ccccc2C(=O)N1Cc1ccccc1 | 2.31 µM [falling, partial curve, poor fit] | –
21 | O=C(C1COc2ccccc2O1)N1CCN(c2ccccc2F)CC1 (configuration not stated) | 0.1 µM [rising, full curve, poor fit] | –
22 | CCCCNC(=S)N/N=C/c1sccc1C | 11.2 µM [rising, partial curve, poor fit] | –

Row | SMILES | AC50 [1] | AC50 [2]
23 | O=C(CSc1nnc(-c2ccc(C(F)(F)F)cn2)o1)Nc1ccccc1Cl | 12.6 µM [falling, partial curve] | –
24 | CCOC(=O)/C=C/C(=O)OCC(=O)Nc1c(Cl)cccc1Cl | 11.2 µM [falling, single point] | –
25 | CCn1nc(C)c(CNCc2cn[nH]c2-c2cc3ccccc3o2)c1C | 35.5 µM [rising, single point] | –
26 | CCOC(=O)N1CCC(NC(=O)c2cc(-c3ccc(F)cc3)[nH]c2C)CC1 | 5.62 µM [falling, single point] | –
27 | COCCOC(=O)c1[nH]c2c(c1C)C(=O)CC(c1ccco1)C2 (configuration not stated) | 16.4 µM [rising, partial curve, poor fit] | –
28 | Cc1cc(C)n(-c2nc(C)c(C)c(=O)n2CC(=O)Nc2ccc(OC(F)(F)F)cc2)n1 | 14.1 µM [rising, partial curve, poor fit] | –
29 | CCc1noc(C)c1C(=O)N1CCCC1 | 5.17 µM [falling, single point] | –
30 | C/C(CC(=O)Nc1ccc(N(C)C)cc1)=N\NC(=O)c1ccc(Cl)cc1Cl | 0.1 µM [rising, full curve, poor fit] | –
31 | COc1ccc(CN2CCC(C(=O)NCCc3ccc(OC)c(OC)c3)CC2)c(OC)c1 | 20.6 µM [falling, partial curve, poor fit] | –
32 | Cc1cc(C)c(NC(=S)N(CCc2ccncc2)C(C)C)c(C)c1 | 0.562 µM [falling, full curve, poor fit] | –
33 | O=C(NCCCN1CCOCC1)c1ccc(Cl)s1 | 29.1 µM [falling, single point] | 18.4 µM [rising, partial curve, poor fit]
34 | Cc1ccc(/C=N/NC(=O)Cc2cccn2C)cc1 | 5.62 µM [falling, partial curve, poor fit] | –
35 | COC(=O)c1cc(C(=O)OC)cc(N2C(=O)CC(NNC(=O)c3ccccc3Cl)C2=O)c1 (configuration not stated) | 7.31 µM [falling, partial curve, poor fit] | –
36 | Cc1c(C(=O)OCC(=O)c2c(N)n(CC(C)C)c(=O)n(C)c2=O)oc2ccccc12 | 2.31 µM [rising, partial curve] | –
37 | COc1ccccc1N(CC(=O)Nc1ccccc1C(=O)N1CCCC1)S(C)(=O)=O | 12.6 µM [rising, partial curve, poor fit] | –
38 | Cc1ccc(-n2c(C(C)C)nc3oc4ccccc4c(=O)c3c2=O)cc1 | 0.1 µM [falling, full curve, poor fit] | –
39 | Cc1cccc(NC(=O)c2c(O)c3ccccc3[nH]c2=O)c1 | 0.0891 µM [rising, full curve, poor fit] | –
40 | CCOc1ccc(S(=O)(=O)NNC(=S)Nc2ccc(Br)cc2)cc1 | 0.103 µM [rising, full curve, poor fit] | –
41 | Cc1cc(C)cc(C(=O)N2CC(=O)Nc3ccccc32)c1 | 1.84 µM [rising, full curve] | 2.31 µM [falling, full curve]
42 | CCN(CC)S(=O)(=O)c1ccc(N(C)Cc2cccnc2)nc1 | 0.082 µM [rising, full curve, poor fit] | –
43 | FC(F)Oc1ccc(NC(=S)NCCc2ccccn2)cc1 | 35.5 µM [rising, single point] | –
44 | COc1ccccc1C(=O)NC(=O)COC(=O)c1ncc(Cl)c(Cl)c1Cl | 3.66 µM [rising, partial curve, poor fit] | –

Row | SMILES | AC50 [1] | AC50 [2]
45 | Cc1ccc(-c2nn3c(C)nnc3c3ccccc23)cc1S(=O)(=O)NCc1ccco1 | 29.1 µM [falling, single point] | –
46 | OC1(c2cccc(C(F)(F)F)c2)CCN(Cc2nnnn2Cc2ccccc2)CC1 | 25.1 µM [falling, single point] | –
47 | CCN(CC)C(=O)Cn1c(=O)n(-c2ccccc2)c(=O)c2c3c(sc21)CCC3 | 0.184 µM [rising, full curve, poor fit] | –
48 | CC(C)N=C(N)N=C(N)Nc1ccc(Cl)cc1 | 10.3 µM [falling, partial curve, poor fit] | –
49 | Cc1csc(NC(=O)CSc2nc(=O)[nH]c3c2CCCC3)n1 | 35.5 µM [falling, single point] | –
50 | Cc1ccc(C(CCN)c2ccco2)cc1 (configuration not stated) | 23.1 µM [rising, single point] | –
51 | CCNC(=S)NN=C1CCC(C(C)(C)C)CC1 (configuration not stated) | 2.31 µM [falling, partial curve, poor fit] | –
52 | O=C(CO/N=C/c1cccc([N+](=O)[O-])c1)Nc1ccc2ccccc2c1 | 29.1 µM [falling, single point] | 32.6 µM [rising, partial curve, poor fit]
53 | COC(=O)C1=NN(C(=O)c2ccc(Br)cc2)C(O)(C(C)(C)C)C1 (configuration not stated) | 7.08 µM [falling, partial curve] | –
54 | CC(C)Cn1c(N)c(C(=O)COC(=O)c2cc3ccccc3cc2O)c(=O)n(C)c1=O | 1.03 µM [rising, single point] | –
55 | COc1ccc(OC(C)C(=O)NCCc2nc3ccccc3[nH]2)cc1 (configuration not stated) | 3.66 µM [rising, partial curve, poor fit] | –
56 | COC(=O)c1ccc(C2=NOC(C)(c3sc(-c4ccccc4)nc3C)C2)cc1 (configuration not stated) | 10 µM [rising, partial curve, poor fit] | –
57 | COc1cc(-c2nc(N)n[nH]2)cc(OC)c1OC | 10 µM [rising, partial curve] | –
58 | Cc1ccc(/C=C/C(=O)NCCc2c[nH]c3ccccc23)o1 | 22.4 µM [falling, single point] | –
59 | COc1cc(/C=N/NC(=O)c2cn(-c3cccc(C)n3)cn2)ccc1O | 6.31 µM [falling, partial curve, poor fit] | –
60 | c1ccc2c(c1)NC(c1ccncc1)n1c-2nc2ccccc21 (configuration not stated) | 5.62 µM [falling, partial curve] | –
61 | O=Cc1c[nH]c2ccc(S(=O)(=O)N3CCOCC3)cc12 | 16.4 µM [rising, single point] | –
62 | O=C(Nc1cc(-c2ccccc2)[nH]n1)c1ccccc1F | 1.26 µM [falling, full curve] | –
63 | C/C(=N\NC(=O)COc1ccccc1[N+](=O)[O-])c1cccs1 | 14.1 µM [falling, single point] | –
64 | O=C(Nc1ccccc1C(=O)NCCN1CCOCC1)c1cccc([N+](=O)[O-])c1 | 14.1 µM [falling, single point] | –

No new results follow: an excerpt of the list.
Row | SMILES | AC50 [1] | AC50 [2]
58 | Cc1ccc(/C=C/C(=O)NCCc2c[nH]c3ccccc23)o1 | 22.4 µM [falling, single point] | –
59 | COc1cc(/C=N/NC(=O)c2cn(-c3cccc(C)n3)cn2)ccc1O | 6.31 µM [falling, partial curve, poor fit] | –
60 | c1ccc2c(c1)NC(c1ccncc1)n1c-2nc2ccccc21 (configuration not stated) | 5.62 µM [falling, partial curve] | –
61 | O=Cc1c[nH]c2ccc(S(=O)(=O)N3CCOCC3)cc12 | 16.4 µM [rising, single point] | –
